This is an account of results in PMC12867876.

This experiment addresses T1, Flag-CREG1 (cellular repressor of E1A-stimulated genes 1) (chicken) (UniProt Q5ZJ73).
T1 sequence: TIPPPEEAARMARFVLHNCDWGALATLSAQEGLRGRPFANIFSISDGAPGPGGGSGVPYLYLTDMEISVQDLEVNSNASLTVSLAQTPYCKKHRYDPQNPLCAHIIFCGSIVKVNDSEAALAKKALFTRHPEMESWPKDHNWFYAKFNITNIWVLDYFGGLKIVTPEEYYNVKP
Description: co-IP; lysates (IP lysis buffer) of DF-1 cells transfected with Flag-CREG1 alone or with HA-HSPD1, with or without ALV-J infection; anti-Flag or anti-HA magnetic beads overnight at 4 °C, washed three times with lysis buffer; immunoblot. In general terms: A western blot detects proteins with antibodies after separation by electrophoresis.

No constants are given. Whether binding was seen depends on the method and setting. In cells and extracts the contact can be indirect. Some results given as binding are weak or reduced against the parent protein; the word gives no strength. Sequences can lack the tags named with a protein.

B1: endogenous HSPD1 (heat shock protein family D (Hsp60) member 1) (protein, UniProt Q5ZL72 27-573)
chain: AKDVKFGADARALMLQGVDLLADAVAVTMGPKGRTVIIEQSWGSPKVTKDGVTVAKAIDLKDKYKNIGAKLVQDVANNTNEEAGDGTTTATVLARAIAKEGFEKISKGANPVEIRRGVMLAVDAITAELKKLSKPVTTPEEIAQVATISANGDQEIGNIISDAMKKVGRKGVITVKDGKTLNDELEIIEGMKFDRGYISPYFINTAKGQKCEFQDAYVLISEKKISSVQSIVPALEIANSHRKPLVIIAEDVDGEALSTLVLNRLKVGLQVVAVKAPGFGDNRKNQLKDMAIATGGAVFGEEGLSLNVEDIQPHDFGKVGEVIVTKDDTMLLKGKGEKAQIEKRIQEIIEQLEVTTSEYEKEKLNERLAKLSDGVAVLKVGGTSDVEVNEKKDRVTDALNATRAAVEEGIVPGGGCALLRCIPALDALKPANEDQKIGIEIIKRTLKIPAMTIAKNAGVEGSLIVEKILQSSSEVGYDAMLGEFVNMVEKGIIDPTKVVRTALMDAAGVASLLSTAEAVVTEVPKEEKEPAMGGMGGMGGGMGGGMF
For the molecule B1, the binding result is listed as “binds”.

B2: HA-HSPD1 (heat shock protein family D (Hsp60) member 1) (protein, UniProt Q5ZL72 27-573)
chain: AKDVKFGADARALMLQGVDLLADAVAVTMGPKGRTVIIEQSWGSPKVTKDGVTVAKAIDLKDKYKNIGAKLVQDVANNTNEEAGDGTTTATVLARAIAKEGFEKISKGANPVEIRRGVMLAVDAITAELKKLSKPVTTPEEIAQVATISANGDQEIGNIISDAMKKVGRKGVITVKDGKTLNDELEIIEGMKFDRGYISPYFINTAKGQKCEFQDAYVLISEKKISSVQSIVPALEIANSHRKPLVIIAEDVDGEALSTLVLNRLKVGLQVVAVKAPGFGDNRKNQLKDMAIATGGAVFGEEGLSLNVEDIQPHDFGKVGEVIVTKDDTMLLKGKGEKAQIEKRIQEIIEQLEVTTSEYEKEKLNERLAKLSDGVAVLKVGGTSDVEVNEKKDRVTDALNATRAAVEEGIVPGGGCALLRCIPALDALKPANEDQKIGIEIIKRTLKIPAMTIAKNAGVEGSLIVEKILQSSSEVGYDAMLGEFVNMVEKGIIDPTKVVRTALMDAAGVASLLSTAEAVVTEVPKEEKEPAMGGMGGMGGGMGGGMF
Consider B2, for which the binding entry is “binds”.
